This test addresses PfA-M17(W525A+Y533A) (Plasmodium falciparum) (UniProt Q8IL11). The test is described as follows: AUC.

Protein sequences, listed by entry. Tags and fused reporters are not part of them. Lines headed by an entry give the natural chain unless they say otherwise; changes in a name come on top.
UniProt Q8IL11, whole entry, looked up, stated change not applied: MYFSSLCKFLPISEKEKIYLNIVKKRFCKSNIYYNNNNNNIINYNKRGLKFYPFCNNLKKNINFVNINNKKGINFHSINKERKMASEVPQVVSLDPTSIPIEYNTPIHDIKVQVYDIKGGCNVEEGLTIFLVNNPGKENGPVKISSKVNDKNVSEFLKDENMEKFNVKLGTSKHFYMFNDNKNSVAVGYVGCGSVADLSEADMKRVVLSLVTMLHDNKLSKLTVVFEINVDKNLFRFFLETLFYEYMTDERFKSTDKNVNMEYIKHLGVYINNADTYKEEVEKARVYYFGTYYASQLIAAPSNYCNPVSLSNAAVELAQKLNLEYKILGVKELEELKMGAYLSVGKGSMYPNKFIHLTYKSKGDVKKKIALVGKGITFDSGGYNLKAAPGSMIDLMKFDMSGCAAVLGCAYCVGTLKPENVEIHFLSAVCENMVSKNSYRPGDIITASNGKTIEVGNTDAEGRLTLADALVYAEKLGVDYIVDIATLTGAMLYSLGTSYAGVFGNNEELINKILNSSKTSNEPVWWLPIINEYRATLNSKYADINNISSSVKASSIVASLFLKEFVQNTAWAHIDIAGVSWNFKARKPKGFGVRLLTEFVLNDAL

Results are given in words; binding and its absence hold for the method and conditions named.

Turning to “PfA-M17(W525A+Y533A) (from UniProt Q8IL11 85-605) (enzyme)”, the binding entry is given as “no binding (tested: 0.5 mg/ml)”.

Source of the values: paper doi:10.1101/244665 (bioRxiv, 2019).
